This is an account of results in the supplement of paper PMC11732987, “Enantioselective OTUD7B fragment discovery through chemoproteomics screening and high-throughput optimisation” (Communications Chemistry, 2025).

The chains behind the UniProt entries cited, without tags or fusion partners. Where a name states a change or a piece, a line headed by the entry shows the natural chain unless it says otherwise. Residues count along the entry.
UniProt O60566, 648-667: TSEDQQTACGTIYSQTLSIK
UniProt Q9H8G2, 215-234: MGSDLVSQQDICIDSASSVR
UniProt Q9BX63: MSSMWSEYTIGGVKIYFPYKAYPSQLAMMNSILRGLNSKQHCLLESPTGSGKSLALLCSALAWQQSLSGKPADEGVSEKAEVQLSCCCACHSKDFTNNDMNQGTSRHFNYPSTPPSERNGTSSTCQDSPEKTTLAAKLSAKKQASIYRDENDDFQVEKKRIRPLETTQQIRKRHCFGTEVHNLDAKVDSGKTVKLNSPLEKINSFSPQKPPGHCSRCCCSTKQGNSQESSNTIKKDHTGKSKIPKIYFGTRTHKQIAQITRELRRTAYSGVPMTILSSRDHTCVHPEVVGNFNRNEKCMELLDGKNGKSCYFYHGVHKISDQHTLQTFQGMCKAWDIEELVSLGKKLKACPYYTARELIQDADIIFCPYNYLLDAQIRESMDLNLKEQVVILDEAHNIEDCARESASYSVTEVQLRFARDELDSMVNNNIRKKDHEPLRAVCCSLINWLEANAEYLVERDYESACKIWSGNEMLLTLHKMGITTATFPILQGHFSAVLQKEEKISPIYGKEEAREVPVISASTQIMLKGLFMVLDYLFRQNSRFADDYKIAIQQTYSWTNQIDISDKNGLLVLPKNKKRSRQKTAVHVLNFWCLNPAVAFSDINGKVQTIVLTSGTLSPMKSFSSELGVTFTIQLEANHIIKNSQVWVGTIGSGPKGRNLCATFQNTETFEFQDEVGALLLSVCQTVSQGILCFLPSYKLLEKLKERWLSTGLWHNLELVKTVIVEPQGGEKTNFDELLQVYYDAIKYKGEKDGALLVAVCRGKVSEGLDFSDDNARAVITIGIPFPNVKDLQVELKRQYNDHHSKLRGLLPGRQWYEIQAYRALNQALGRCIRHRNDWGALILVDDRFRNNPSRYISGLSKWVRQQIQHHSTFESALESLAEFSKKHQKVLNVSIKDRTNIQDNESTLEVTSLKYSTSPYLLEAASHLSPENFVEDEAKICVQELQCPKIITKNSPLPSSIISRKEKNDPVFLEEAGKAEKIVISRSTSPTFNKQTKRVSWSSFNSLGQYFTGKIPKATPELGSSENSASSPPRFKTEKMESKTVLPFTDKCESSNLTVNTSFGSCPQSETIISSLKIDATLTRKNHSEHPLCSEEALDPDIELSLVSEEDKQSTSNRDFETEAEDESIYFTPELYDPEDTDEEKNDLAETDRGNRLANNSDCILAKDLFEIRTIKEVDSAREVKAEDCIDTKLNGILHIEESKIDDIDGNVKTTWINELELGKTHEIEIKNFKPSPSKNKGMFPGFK
UniProt P38398, 224-251: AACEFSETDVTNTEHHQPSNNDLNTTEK
UniProt Q99622: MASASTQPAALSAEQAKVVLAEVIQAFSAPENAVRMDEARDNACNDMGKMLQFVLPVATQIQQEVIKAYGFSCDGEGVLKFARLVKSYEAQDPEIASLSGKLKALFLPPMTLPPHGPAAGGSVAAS
UniProt O75828: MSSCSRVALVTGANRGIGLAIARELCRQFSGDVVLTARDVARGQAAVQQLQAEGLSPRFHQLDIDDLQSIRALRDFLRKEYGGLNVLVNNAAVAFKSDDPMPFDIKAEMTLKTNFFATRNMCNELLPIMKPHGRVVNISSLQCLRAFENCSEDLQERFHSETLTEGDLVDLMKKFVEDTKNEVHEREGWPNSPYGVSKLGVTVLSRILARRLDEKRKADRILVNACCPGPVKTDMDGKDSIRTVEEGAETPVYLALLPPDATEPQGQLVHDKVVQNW
UniProt Q8NFC6: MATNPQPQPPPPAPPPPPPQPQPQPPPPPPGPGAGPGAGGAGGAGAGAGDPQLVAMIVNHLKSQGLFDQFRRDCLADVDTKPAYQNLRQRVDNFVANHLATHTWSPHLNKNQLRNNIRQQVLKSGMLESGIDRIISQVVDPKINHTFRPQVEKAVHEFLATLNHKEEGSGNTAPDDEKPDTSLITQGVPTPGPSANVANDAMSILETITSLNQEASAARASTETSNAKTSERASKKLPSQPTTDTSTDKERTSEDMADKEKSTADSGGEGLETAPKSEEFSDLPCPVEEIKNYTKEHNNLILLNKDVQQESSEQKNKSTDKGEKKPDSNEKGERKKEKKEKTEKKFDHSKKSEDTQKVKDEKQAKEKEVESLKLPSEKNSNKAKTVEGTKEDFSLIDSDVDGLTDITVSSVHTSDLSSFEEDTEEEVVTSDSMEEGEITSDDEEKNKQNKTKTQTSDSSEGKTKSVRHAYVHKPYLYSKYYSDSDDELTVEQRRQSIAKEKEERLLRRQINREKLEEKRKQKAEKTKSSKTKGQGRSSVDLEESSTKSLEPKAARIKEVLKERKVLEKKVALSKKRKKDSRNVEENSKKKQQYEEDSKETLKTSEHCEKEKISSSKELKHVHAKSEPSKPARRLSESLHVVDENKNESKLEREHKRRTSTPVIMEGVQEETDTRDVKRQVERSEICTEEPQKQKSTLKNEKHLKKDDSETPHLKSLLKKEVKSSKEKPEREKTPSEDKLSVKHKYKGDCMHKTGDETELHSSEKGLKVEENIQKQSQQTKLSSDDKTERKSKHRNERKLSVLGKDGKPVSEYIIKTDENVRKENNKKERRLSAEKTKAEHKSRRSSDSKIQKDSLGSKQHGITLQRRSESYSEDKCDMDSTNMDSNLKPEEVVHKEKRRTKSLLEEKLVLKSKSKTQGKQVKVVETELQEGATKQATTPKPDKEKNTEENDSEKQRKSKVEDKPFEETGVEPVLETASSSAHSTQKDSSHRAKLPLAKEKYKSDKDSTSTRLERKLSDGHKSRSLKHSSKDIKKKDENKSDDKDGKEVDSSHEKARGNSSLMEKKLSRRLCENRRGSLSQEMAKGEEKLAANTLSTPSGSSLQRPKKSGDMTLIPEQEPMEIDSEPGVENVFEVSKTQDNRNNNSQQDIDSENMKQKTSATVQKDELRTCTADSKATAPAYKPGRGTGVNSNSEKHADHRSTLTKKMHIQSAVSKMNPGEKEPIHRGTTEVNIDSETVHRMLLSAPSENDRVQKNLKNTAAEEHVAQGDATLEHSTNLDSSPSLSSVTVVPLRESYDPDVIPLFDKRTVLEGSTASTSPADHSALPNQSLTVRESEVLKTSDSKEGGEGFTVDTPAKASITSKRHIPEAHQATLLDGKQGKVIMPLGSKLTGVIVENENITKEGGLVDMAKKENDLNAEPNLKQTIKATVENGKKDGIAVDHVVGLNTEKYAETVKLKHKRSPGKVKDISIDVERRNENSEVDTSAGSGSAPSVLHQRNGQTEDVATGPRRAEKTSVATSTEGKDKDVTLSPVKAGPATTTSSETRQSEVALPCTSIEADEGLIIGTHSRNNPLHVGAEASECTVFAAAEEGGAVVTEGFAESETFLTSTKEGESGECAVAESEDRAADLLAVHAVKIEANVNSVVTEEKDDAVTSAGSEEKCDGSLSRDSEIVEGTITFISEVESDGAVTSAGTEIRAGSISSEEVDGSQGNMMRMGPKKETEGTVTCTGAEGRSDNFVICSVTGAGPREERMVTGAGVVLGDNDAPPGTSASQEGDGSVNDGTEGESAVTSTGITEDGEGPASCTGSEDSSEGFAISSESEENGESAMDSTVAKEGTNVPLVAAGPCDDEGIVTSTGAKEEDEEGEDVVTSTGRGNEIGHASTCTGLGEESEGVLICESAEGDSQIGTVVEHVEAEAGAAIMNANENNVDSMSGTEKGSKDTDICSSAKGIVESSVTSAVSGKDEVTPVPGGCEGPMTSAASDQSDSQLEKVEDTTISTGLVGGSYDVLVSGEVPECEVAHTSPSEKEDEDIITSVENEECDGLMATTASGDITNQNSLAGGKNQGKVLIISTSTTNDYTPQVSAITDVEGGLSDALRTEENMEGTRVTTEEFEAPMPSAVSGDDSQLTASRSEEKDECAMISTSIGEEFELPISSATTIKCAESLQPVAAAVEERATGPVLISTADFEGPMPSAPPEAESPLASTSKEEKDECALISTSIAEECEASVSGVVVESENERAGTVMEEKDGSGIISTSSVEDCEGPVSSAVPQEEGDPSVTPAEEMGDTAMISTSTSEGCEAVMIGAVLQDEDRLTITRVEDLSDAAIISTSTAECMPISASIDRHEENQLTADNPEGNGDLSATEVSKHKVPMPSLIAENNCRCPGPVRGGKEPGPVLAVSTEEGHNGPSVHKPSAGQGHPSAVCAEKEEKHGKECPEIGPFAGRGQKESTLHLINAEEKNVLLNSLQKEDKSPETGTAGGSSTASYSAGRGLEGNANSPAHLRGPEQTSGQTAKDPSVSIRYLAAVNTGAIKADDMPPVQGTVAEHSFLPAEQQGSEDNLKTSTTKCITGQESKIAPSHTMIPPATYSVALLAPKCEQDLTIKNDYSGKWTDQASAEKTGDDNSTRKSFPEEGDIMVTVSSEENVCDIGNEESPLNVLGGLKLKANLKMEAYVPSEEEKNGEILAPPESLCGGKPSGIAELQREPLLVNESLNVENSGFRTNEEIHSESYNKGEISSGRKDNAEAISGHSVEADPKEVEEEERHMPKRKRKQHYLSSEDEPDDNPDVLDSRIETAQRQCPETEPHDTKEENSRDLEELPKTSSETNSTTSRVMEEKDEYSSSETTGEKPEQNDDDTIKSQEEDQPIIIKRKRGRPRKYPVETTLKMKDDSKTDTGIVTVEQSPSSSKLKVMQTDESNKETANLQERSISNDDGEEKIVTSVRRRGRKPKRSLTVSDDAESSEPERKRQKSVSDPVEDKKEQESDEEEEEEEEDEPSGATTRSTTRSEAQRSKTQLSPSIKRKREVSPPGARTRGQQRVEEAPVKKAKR
UniProt P16152: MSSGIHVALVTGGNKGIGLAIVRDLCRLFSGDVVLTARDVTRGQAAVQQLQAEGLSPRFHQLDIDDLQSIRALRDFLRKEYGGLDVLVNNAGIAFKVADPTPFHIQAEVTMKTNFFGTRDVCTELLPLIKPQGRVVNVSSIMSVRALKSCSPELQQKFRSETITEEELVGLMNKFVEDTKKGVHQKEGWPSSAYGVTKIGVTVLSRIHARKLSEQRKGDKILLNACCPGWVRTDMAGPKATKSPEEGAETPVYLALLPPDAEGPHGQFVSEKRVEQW
UniProt Q9NSG2: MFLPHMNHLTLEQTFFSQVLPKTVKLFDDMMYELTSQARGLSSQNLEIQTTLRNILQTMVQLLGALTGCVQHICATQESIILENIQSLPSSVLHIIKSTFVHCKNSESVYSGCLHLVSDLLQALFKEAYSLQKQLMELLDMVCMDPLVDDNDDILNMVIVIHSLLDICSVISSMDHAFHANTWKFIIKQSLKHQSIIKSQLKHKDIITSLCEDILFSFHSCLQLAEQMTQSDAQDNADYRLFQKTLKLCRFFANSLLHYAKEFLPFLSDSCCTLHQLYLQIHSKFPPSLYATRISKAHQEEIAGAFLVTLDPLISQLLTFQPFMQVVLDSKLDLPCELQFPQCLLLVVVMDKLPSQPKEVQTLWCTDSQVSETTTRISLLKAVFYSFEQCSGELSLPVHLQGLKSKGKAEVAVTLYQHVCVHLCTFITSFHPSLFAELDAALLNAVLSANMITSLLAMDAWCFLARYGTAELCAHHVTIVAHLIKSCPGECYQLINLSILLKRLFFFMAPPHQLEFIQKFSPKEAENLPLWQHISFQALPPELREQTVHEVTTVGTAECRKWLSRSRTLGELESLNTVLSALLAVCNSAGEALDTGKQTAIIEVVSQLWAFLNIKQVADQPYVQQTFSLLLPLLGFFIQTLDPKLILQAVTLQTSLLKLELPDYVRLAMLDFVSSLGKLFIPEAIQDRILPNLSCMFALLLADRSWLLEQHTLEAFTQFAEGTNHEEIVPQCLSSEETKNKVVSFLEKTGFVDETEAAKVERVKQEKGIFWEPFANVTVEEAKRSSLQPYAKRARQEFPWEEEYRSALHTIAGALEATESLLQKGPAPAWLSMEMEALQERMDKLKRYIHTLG
UniProt P47756: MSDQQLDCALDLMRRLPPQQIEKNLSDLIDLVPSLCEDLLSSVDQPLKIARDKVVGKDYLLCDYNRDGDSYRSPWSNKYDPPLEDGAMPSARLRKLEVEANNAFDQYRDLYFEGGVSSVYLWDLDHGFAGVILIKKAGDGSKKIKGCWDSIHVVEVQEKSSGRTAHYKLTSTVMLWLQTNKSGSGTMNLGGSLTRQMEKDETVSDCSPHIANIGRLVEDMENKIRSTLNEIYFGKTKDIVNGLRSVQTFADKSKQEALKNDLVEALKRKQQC
UniProt Q8N4J0: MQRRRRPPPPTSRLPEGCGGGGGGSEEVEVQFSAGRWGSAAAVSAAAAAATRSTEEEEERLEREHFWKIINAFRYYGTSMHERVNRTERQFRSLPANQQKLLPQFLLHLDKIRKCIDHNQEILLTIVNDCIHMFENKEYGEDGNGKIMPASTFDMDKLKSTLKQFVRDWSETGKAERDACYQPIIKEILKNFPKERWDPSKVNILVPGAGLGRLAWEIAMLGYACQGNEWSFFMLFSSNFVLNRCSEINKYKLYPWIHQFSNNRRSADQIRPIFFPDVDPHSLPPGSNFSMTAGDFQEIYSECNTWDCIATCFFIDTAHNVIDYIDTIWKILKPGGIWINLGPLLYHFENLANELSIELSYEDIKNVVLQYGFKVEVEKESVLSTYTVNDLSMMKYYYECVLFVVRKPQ

Some of the results follow. The data scatter; read single values as rough.

Compound in the first assay: ClCC(=O)N[C@@H]1CCCc2ccccc12
As to the kind of experiment: log2 mean competition ratio of IA-DTB cysteine labelling (DMSO/compound) (log2 ratio); higher = stronger cysteine engagement by compound. Particulars: 50 µM; treatment time: 4 h; cell line lysate: HEK293T. As to the method: (§1)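 IA-DTB competitive cysteine chemoproteomics in HEK293T RIPA lysate. Lysates were treated with compound 29 or 30 at 50 or 200 µM for 4 h, then IA-DTB (500 µM, 1 h), trypsin-digested, NeutrAvidin-enriched and analysed by diaPASEF. Competition ratio = intensity DMSO / intensity compound (n=4 treated, n=64 DMSO); binding: mean log2 CR ≥ 1 and p ≤ 0.05 plus QC filters. Target is the cysteine site.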
For the target BUB1B C767 (UniProt O60566), the “log2 mean competition ratio” value is -0.318.
CAAP1 C226 (UniProt Q9H8G2): the “log2 mean competition ratio” value is -0.125.
As to BUB1B C656 (UniProt O60566), the “log2 mean competition ratio” value was -0.109.
Same read-out and setting: the result for CASP8AP2 C1100 (UniProt Q9UKL3) reads -0.237; that for BRIP1 C42 (UniProt Q9BX63), -0.3; that for CACUL1 C362 (UniProt Q86Y37), 0.173.
Turning to BRCA1 C226 (UniProt P38398), the “log2 mean competition ratio” value is -0.192.
Same read-out and setting: for CAND1 C356 the value was 0.0463; for CAND1 C1134, 0.49; for CAMKK1 C243 (UniProt Q8N5S9), -0.0985.
For the target C12orf57 C73 (UniProt Q99622), the “log2 mean competition ratio” value came out at 0.311.
Same read-out and setting: the result for CAMKMT C208 (UniProt Q7Z624) reads -0.239.
Still for that read-out and setting: the result for CBR3 C150 (UniProt O75828) reads 0.28; that for CAMKMT C281 (UniProt Q7Z624), 0.257.
Turning to BOD1L1 C74 (UniProt Q8NFC6), the “log2 mean competition ratio” value was 0.157.
The same measure, in the same setting: the result for CAD C379 reads 0.255.
The same measure, in the same setting: for BPTF C1357 the value was -0.0491; for CASP6 C87 (UniProt P55212), 0.00658.
For BRD7 C646 (UniProt Q9NPI1), the “log2 mean competition ratio” value was -0.0836.
Turning to CBS C15 (UniProt P35520), the “log2 mean competition ratio” value was 0.052.
In the case of CASP8AP2 C174 (UniProt Q9UKL3), the “log2 mean competition ratio” value amounted to 0.0998.
On the same count and under the same terms, the result for CBR1 C150 (UniProt P16152) reads -0.235; that for CARD8 C149 (UniProt Q9Y2G2), -0.55.
On the same count and under the same terms, for C2CD5 C449 (UniProt Q86YS7) the value was -0.222; for C1orf112 C559 (UniProt Q9NSG2), -0.0397; for CAND1 C1007, 0.0896.
With CAPN2 C301 (UniProt P17655), the “log2 mean competition ratio” value came out at 0.55.
With CAPZB C147 (UniProt P47756), the “log2 mean competition ratio” value came to 0.24.
Same read-out and setting: for BTD C371 (UniProt P43251) the value was -0.213; for CAMK2D C7 (UniProt Q13557), -0.173; for BTBD2 C294 (UniProt Q9BX70), -0.174.
Same read-out and setting: the result for CARNMT1 C180 (UniProt Q8N4J0) reads 0.00289.
Still for that read-out and setting: the result for CAD C1215 reads -0.0658.
On to C17orf80 C307 (UniProt Q9BSJ5), for which the “log2 mean competition ratio” value was 0.0788.
In the case of C22orf39 C105 (UniProt Q6P5X5), the “log2 mean competition ratio” value was 0.553.
As for BRMS1L C61 (UniProt Q5PSV4), the “log2 mean competition ratio” value is -0.116.
Still for that read-out and setting: for BOD1L1 C2164 (UniProt Q8NFC6) the value was -0.229.
As to BRCA1 C442 (UniProt P38398), the “log2 mean competition ratio” value was -0.218.

Staying with this assay, now noted: 200 µM; treatment time: 4 h; cell line lysate: HEK293T.
Take BUB1B C767 (UniProt O60566): the “log2 mean competition ratio” value is -0.211.
For the target CAAP1 C226 (UniProt Q9H8G2), the “log2 mean competition ratio” value was 0.167.
On the same count and under the same terms, for BUB1B C656 (UniProt O60566) the value was -0.0415.
Regarding CASP8AP2 C1100 (UniProt Q9UKL3), the “log2 mean competition ratio” value was -0.55.
For BRIP1 C42 (UniProt Q9BX63), the “log2 mean competition ratio” value worked out at 0.47.
Still for that read-out and setting: the result for CACUL1 C362 (UniProt Q86Y37) reads -0.0211; that for BRCA1 C226 (UniProt P38398), -0.0652; that for CAND1 C356, -0.0237.
Regarding CAND1 C1134, the “log2 mean competition ratio” value was -0.0703.
Turning to CAMKK1 C243 (UniProt Q8N5S9), the “log2 mean competition ratio” value is 0.0611.
Same read-out and setting: the result for C12orf57 C73 (UniProt Q99622) reads 0.207.
As for CAMKMT C208 (UniProt Q7Z624), the “log2 mean competition ratio” value is -0.255.
Same read-out and setting: for CBR3 C150 (UniProt O75828) the value was -0.02.
Same read-out and setting: the result for CAMKMT C281 (UniProt Q7Z624) reads 0.188; that for BOD1L1 C74 (UniProt Q8NFC6), 0.202.
Regarding CAD C379, the “log2 mean competition ratio” value is -0.182.
Consider BPTF C1357, for which the “log2 mean competition ratio” value was found to be 0.278.
For CASP6 C87 (UniProt P55212), the “log2 mean competition ratio” value is -0.02.
For the target BRD7 C646 (UniProt Q9NPI1), the “log2 mean competition ratio” value stood at 0.139.
On the same count and under the same terms, for CBS C15 (UniProt P35520) the value was -0.0212.
Still for that read-out and setting: the result for CASP8AP2 C174 (UniProt Q9UKL3) reads -0.326; that for CBR1 C150 (UniProt P16152), 0.0718; that for CARD8 C149 (UniProt Q9Y2G2), 0.372.
Take C2CD5 C449 (UniProt Q86YS7): the “log2 mean competition ratio” value was -0.00821.
On the same count and under the same terms, the result for C1orf112 C559 (UniProt Q9NSG2) reads 0.0117; that for CAND1 C1007, -0.0589.
On the same count and under the same terms, for CAPN2 C301 (UniProt P17655) the value was -0.0911; for CAPZB C147 (UniProt P47756), 0.0241; for BTD C371 (UniProt P43251), 0.385.
Turning to CAMK2D C7 (UniProt Q13557), the “log2 mean competition ratio” value was determined as 0.0407.
On the same count and under the same terms, the result for BTBD2 C294 (UniProt Q9BX70) reads 0.128; that for CARNMT1 C180 (UniProt Q8N4J0), -0.156.
On the same count and under the same terms, for CAD C1215 the value was -0.136; for C17orf80 C307 (UniProt Q9BSJ5), 0.207.
With C22orf39 C105 (UniProt Q6P5X5), the “log2 mean competition ratio” value was -0.0221.
Take BRMS1L C61 (UniProt Q5PSV4): the “log2 mean competition ratio” value came out at 0.00569.
Regarding BOD1L1 C2164 (UniProt Q8NFC6), the “log2 mean competition ratio” value is -0.00641.
Take BRCA1 C442 (UniProt P38398): the “log2 mean competition ratio” value is -0.0117.

Compound in another assay: ClCC(=O)N[C@H]1CCCc2ccccc12
The description is as above. Particulars: 50 µM; treatment time: 4 h; cell line lysate: HEK293T. The procedure: as §1
Regarding BUB1B C767 (UniProt O60566), the “log2 mean competition ratio” value is -0.233.
Consider CAAP1 C226 (UniProt Q9H8G2), for which the “log2 mean competition ratio” value was -0.104.
On to BUB1B C656 (UniProt O60566), for which the “log2 mean competition ratio” value is 0.37.
Still for that read-out and setting: for CASP8AP2 C1100 (UniProt Q9UKL3) the value was -0.0906; for BRIP1 C42 (UniProt Q9BX63), 0.0852.
Same read-out and setting: for CACUL1 C362 (UniProt Q86Y37) the value was 0.276; for BRCA1 C226 (UniProt P38398), 0.00944; for CAND1 C356, -0.231.
Same read-out and setting: for CAND1 C1134 the value was -0.096.
Regarding CAMKK1 C243 (UniProt Q8N5S9), the “log2 mean competition ratio” value was -0.426.
C12orf57 C73 (UniProt Q99622): the “log2 mean competition ratio” value was 0.35.
For the target CAMKMT C208 (UniProt Q7Z624), the “log2 mean competition ratio” value was determined as 0.376.
Still for that read-out and setting: the result for CBR3 C150 (UniProt O75828) reads 0.261.
Still for that read-out and setting: for CAMKMT C281 (UniProt Q7Z624) the value was -0.153.
The same measure, in the same setting: the result for BOD1L1 C74 (UniProt Q8NFC6) reads 0.0135; that for CAD C379, 0.261.
On to BPTF C1357, for which the “log2 mean competition ratio” value was -0.177.
CASP6 C87 (UniProt P55212): the “log2 mean competition ratio” value is -0.511.
On the same count and under the same terms, for BRD7 C646 (UniProt Q9NPI1) the value was -0.182.
Same read-out and setting: for CBS C15 (UniProt P35520) the value was -0.187; for CASP8AP2 C174 (UniProt Q9UKL3), 0.457.
Take CBR1 C150 (UniProt P16152): the “log2 mean competition ratio” value is -0.278.
CARD8 C149 (UniProt Q9Y2G2): the “log2 mean competition ratio” value was -0.766.
On the same count and under the same terms, the result for C2CD5 C449 (UniProt Q86YS7) reads 0.0933; that for C1orf112 C559 (UniProt Q9NSG2), 0.226; that for CAND1 C1007, -0.0657.
For CAPN2 C301 (UniProt P17655), the “log2 mean competition ratio” value turned out to be 0.861.
Still for that read-out and setting: the result for CAPZB C147 (UniProt P47756) reads -0.0628.
For the target BTD C371 (UniProt P43251), the “log2 mean competition ratio” value was -0.0744.
Still for that read-out and setting: the result for CAMK2D C7 (UniProt Q13557) reads 0.273; that for BTBD2 C294 (UniProt Q9BX70), -0.159.
Still for that read-out and setting: for CARNMT1 C180 (UniProt Q8N4J0) the value was -0.0445.
The same measure, in the same setting: for CAD C1215 the value was 0.175; for C17orf80 C307 (UniProt Q9BSJ5), -0.0714.
With C22orf39 C105 (UniProt Q6P5X5), the “log2 mean competition ratio” value turned out to be 0.305.
The same measure, in the same setting: for BRMS1L C61 (UniProt Q5PSV4) the value was -0.197; for BOD1L1 C2164 (UniProt Q8NFC6), 0.191.
Still for that read-out and setting: for BRCA1 C442 (UniProt P38398) the value was -0.0374.
